Source: paper PMC7618180
No constants are given. Whether binding was seen depends on the method and setting. Some binding calls cover weakened binding; strength is not graded here.

The chains behind the UniProt entries cited, without tags or fusion partners.
UniProt Q5T4S7: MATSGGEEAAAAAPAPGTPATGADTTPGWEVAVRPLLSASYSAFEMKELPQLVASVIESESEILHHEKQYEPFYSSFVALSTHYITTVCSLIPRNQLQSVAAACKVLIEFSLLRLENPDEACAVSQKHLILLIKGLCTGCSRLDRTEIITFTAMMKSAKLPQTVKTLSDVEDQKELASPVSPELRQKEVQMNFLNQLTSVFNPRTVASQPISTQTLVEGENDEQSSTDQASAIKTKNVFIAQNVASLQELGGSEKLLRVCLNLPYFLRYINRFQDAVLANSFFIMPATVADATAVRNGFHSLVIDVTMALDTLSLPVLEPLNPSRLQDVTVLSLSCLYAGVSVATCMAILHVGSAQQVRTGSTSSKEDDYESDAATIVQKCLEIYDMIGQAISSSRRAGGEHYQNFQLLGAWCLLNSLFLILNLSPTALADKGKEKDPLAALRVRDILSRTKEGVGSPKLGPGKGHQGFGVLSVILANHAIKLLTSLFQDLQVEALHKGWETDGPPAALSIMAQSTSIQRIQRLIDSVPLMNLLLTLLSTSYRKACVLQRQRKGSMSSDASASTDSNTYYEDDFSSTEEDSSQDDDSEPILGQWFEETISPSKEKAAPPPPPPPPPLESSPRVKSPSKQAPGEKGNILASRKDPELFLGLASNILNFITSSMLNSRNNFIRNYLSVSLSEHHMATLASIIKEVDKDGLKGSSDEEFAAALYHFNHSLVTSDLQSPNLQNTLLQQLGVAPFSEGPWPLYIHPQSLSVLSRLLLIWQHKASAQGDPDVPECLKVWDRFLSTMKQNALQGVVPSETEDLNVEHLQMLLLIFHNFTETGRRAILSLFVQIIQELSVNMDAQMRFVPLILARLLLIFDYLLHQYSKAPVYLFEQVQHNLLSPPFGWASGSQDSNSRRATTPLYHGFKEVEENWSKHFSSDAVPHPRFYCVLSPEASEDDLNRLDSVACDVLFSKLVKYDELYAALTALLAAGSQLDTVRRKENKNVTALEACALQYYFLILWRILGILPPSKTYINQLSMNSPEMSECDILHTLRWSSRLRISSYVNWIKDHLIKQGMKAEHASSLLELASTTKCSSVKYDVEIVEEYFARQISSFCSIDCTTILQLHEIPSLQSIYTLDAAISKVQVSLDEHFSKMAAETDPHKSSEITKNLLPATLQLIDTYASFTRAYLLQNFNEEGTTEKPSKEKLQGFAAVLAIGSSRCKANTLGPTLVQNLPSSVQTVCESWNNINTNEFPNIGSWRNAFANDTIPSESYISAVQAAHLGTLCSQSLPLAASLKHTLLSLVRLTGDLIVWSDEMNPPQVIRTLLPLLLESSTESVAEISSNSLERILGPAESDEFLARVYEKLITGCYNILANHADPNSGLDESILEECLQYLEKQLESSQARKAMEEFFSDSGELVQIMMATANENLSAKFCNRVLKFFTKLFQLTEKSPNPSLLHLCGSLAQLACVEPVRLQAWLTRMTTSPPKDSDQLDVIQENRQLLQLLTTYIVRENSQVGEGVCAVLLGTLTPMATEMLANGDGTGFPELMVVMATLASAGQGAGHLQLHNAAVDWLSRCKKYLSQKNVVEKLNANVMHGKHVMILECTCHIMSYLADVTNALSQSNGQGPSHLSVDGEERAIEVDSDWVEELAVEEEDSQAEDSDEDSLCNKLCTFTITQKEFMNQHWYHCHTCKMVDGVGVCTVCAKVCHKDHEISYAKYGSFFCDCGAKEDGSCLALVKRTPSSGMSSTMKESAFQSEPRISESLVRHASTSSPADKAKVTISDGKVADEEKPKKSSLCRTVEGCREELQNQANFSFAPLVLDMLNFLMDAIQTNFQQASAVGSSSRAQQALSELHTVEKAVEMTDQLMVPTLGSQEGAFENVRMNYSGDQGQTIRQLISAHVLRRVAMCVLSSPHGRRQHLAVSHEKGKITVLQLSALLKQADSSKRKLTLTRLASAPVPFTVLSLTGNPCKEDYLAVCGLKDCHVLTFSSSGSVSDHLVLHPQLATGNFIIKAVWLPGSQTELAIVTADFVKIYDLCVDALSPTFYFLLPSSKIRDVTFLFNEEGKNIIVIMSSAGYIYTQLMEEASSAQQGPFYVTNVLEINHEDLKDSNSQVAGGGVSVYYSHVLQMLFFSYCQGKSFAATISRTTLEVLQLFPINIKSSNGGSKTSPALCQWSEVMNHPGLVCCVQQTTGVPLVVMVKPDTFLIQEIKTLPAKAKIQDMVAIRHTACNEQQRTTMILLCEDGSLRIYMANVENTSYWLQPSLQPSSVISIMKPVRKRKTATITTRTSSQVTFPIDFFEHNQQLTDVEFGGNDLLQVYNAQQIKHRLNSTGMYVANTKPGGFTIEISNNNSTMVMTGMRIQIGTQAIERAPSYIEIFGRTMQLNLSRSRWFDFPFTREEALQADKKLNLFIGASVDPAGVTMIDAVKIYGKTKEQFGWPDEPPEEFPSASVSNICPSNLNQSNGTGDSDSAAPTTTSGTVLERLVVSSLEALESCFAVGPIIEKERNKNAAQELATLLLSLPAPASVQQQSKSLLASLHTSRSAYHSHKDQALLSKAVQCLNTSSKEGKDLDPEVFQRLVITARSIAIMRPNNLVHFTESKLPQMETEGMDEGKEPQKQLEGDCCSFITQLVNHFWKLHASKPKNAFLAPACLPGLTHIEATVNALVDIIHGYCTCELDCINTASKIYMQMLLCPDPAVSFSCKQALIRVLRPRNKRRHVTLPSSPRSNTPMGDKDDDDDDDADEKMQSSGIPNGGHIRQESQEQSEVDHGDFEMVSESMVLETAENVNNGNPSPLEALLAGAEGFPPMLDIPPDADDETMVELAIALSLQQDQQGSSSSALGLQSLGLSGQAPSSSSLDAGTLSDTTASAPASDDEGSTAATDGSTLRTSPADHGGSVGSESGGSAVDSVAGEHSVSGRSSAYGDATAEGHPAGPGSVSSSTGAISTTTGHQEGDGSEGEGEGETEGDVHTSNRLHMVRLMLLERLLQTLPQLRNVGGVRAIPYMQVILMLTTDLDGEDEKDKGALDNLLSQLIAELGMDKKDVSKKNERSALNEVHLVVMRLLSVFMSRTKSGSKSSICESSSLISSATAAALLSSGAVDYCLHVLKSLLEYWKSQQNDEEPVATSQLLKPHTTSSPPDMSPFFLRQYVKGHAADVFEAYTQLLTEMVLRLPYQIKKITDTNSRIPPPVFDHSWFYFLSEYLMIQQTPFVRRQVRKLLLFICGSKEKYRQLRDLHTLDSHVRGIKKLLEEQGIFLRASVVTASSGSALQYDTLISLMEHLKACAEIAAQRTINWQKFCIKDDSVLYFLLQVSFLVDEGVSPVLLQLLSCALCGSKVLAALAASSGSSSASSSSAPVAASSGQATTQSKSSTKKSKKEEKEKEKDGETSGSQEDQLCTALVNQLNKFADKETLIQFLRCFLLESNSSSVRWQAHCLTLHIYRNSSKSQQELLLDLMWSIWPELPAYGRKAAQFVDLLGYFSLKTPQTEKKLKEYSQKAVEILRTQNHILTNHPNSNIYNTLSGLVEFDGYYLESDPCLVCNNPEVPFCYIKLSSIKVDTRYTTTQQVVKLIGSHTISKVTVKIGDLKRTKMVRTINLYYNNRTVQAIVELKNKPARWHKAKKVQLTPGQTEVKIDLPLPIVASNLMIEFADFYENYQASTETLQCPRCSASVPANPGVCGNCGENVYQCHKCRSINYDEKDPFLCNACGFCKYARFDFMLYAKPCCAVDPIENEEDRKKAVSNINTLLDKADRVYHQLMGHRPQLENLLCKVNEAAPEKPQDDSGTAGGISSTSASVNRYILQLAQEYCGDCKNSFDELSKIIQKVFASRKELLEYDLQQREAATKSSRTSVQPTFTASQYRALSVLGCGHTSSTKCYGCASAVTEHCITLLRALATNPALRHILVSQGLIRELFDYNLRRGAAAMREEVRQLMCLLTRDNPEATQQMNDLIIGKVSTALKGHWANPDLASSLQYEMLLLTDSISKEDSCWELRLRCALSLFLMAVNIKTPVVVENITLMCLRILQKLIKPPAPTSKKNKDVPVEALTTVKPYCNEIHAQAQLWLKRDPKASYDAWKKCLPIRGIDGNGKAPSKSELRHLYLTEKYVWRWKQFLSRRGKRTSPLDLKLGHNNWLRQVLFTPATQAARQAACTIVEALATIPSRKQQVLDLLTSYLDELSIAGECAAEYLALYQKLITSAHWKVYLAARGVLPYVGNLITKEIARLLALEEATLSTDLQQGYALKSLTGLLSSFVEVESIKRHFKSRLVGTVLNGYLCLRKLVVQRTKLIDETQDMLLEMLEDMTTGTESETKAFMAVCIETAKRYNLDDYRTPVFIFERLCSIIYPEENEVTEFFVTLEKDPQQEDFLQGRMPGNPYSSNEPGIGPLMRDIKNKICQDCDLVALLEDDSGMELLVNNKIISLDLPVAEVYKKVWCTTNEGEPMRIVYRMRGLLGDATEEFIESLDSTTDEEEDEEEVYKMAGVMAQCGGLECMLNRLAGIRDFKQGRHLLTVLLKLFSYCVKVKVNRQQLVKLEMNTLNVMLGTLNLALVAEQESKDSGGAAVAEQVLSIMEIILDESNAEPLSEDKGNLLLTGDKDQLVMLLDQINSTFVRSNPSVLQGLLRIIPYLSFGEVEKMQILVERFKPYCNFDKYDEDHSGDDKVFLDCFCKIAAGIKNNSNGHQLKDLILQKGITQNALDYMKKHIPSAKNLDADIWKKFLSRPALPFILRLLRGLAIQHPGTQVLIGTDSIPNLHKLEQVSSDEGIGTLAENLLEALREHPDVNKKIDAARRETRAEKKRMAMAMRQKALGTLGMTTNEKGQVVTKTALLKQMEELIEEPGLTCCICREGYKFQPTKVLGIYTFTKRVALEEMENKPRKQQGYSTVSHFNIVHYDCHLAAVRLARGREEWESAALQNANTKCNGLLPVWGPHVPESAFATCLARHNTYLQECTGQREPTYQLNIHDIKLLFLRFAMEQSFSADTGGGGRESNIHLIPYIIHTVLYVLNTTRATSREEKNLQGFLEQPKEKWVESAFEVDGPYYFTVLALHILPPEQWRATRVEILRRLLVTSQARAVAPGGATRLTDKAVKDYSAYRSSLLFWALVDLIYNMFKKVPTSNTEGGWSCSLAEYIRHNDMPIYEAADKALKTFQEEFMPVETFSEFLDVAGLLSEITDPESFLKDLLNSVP
UniProt Q9P0J7: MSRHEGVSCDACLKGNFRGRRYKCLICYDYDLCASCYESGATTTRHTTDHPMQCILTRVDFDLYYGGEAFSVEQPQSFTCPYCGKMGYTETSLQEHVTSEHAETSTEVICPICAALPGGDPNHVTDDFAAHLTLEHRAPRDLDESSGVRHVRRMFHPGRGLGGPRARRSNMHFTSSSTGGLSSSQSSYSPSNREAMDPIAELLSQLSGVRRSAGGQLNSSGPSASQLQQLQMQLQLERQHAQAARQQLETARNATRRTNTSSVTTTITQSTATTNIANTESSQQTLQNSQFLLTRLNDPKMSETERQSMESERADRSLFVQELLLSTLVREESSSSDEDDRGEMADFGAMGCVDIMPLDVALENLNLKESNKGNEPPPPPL

Legend:
human UBR4 (human) [1] = biological target: human UBR4 (human) (UniProt Q5T4S7); experiment: mass photometry; isolated human UBR4/KCMF1/CALM1 complex, co-expressed in insect cells and purified via a tag on UBR4; both purified
human UBR4 (human) [2] = biological target: human UBR4 (human) (UniProt Q5T4S7); experiment: cryo-EM structure; human UBR4 complex (HsUBR4_(2)/KCMF1_(2)/CALM1_(2)); treatment with EGTA did not affect the CALM1 occupancy; both purified
[3] = biological target: Arabidopsis thaliana UBR4 (also known as BIG) (Arabidopsis thaliana) (UniProt Q9SRU2); experiment: cryo-EM structure; complex from co-expression of AtUBR4, AtDI19 and AtCALM1; medium resolution map of the dimerization interface, modelled using AlphaFold3; both purified

Row | Substance | binding (human UBR4 (human) [1]) | binding (human UBR4 (human) [2]) | binding [3]
1 | human KCMF1 (from UniProt Q9P0J7 1-381) | binds | binds | –
2 | Arabidopsis thaliana calmodulin 1 (from UniProt P0DH95 1-149) | – | – | binds
3 | human UBR4 (from UniProt Q5T4S7 1-5183) (enzyme) | – | binds | –
